Results deposited as PubChem BioAssay AID1259308 (NCATS, 2017)
In all, the deposit lists about 59,000 reagents; shown is a part drawn at random. About 1,510 of them (2.6%) count as active. 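Calls use total luciferase alone and ignore viability, so some active siRNAs may act by altering cell number.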 The numbers tell different reagents against one gene apart. Further read-outs or replicates are left out here. No sequences are given here.

Aim: 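Candidate targets for better recombinant protein yield in mammalian cells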 (primary screen)
Cell system: human HEK293 embryonic kidney cells stably expressing firefly luciferase (HEK-CMV-Luc2-Hygro)
Reagent: single siRNA against human genes, 0.8 pmol siRNA per well
Duration: 72 h
Read-out: 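Luciferase light (ONE-Glo) measured on one replicate plate set and viability (CellTiter-Glo) on the other, scaled to a negative control siRNA, with robust z-scores and luciferase per cell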
Direction: total luciferase, z-score and total luciferase, % of control: higher = more reporter protein produced; luciferase per cell, z-score: higher = more reporter output per viable cell
Rule for the call: 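An siRNA counts as active if its total luciferase robust z-score exceeds 3; genes with two or more such siRNAs out of three were retested with fresh siRNAs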
Meaning of the calls: active = raised luciferase; inactive = no rise

no.	gene	reagent	total luciferase, z-score	total luciferase, % of control	luciferase per cell, z-score	call
1	GLOD4 (glyoxalase domain containing 4)	1	1.13	104	1.36	inactive
2	GLOD4 (glyoxalase domain containing 4)	2	-0.114	79.6	-0.0715	inactive
3	GLOD4 (glyoxalase domain containing 4)	3	1.61	114	1.1	inactive
4	HK2 (hexokinase 2)	1	-0.297	76	1.88	inactive
5	HK2 (hexokinase 2)	2	0.35	88.9	-0.0618	inactive
6	HK2 (hexokinase 2)	3	-1.01	61.9	-0.0322	inactive
7	SLC23A1	1	0.514	92.1	-0.137	inactive
8	SLC23A1	2	-0.337	75.2	-0.45	inactive
9	SLC23A1	3	1.3	108	0.732	inactive
10	PCK2 (phosphoenolpyruvate carboxykinase 2, mitochondrial)	1	-1.91	44	-1.72	inactive
11	PCK2 (phosphoenolpyruvate carboxykinase 2, mitochondrial)	2	-0.242	77.1	-0.268	inactive
12	PCK2 (phosphoenolpyruvate carboxykinase 2, mitochondrial)	3	0.951	101	0.79	inactive
13	ITLN2 (intelectin 2)	1	-0.388	74.2	-0.553	inactive
14	ITLN2 (intelectin 2)	2	-0.62	69.5	-0.482	inactive
15	ITLN2 (intelectin 2)	3	1.2	106	0.8	inactive
16	RGS1 (regulator of G protein signaling 1)	1	-0.269	76.5	-0.342	inactive
17	RGS1 (regulator of G protein signaling 1)	2	-0.684	68.3	-0.588	inactive
18	RGS1 (regulator of G protein signaling 1)	3	-0.842	65.1	-1.31	inactive
19	SETD5 (SET domain containing 5)	1	1.48	111	1.07	inactive
20	SETD5 (SET domain containing 5)	2	1.11	104	0.656	inactive
21	SETD5 (SET domain containing 5)	3	-0.3	75.9	1.16	inactive
22	LYVE1 (lymphatic vessel endothelial hyaluronan receptor 1)	1	-0.857	64.8	-0.861	inactive
23	LYVE1 (lymphatic vessel endothelial hyaluronan receptor 1)	2	-0.109	79.7	-0.323	inactive
24	LYVE1 (lymphatic vessel endothelial hyaluronan receptor 1)	3	1.05	103	1.47	inactive

2 successive entries already listed, quoted:
no.	gene	reagent	total luciferase, z-score	total luciferase, % of control	luciferase per cell, z-score	call
17	RGS1 (regulator of G protein signaling 1)	2	-0.684	68.3	-0.588	inactive
18	RGS1 (regulator of G protein signaling 1)	3	-0.842	65.1	-1.31	inactive
